# Source: PubChem BioAssay AID504444 (National Center for Advancing Translational Sciences (NCATS), 2011)
# Among all 360,000 compounds or so, about 7,500 (2.1%) were called active. The shares of active, inactive and inconclusive entries below differ from those in the screen. Calls come from the whole dose curve; as a rule, active = well fitted inhibition curve with a large enough effect; inconclusive = small, poorly fitted or top-dose-only effect, or effect the other way; inactive = flat fitted curve, though single readings scatter. A potency beside an inconclusive call is a rough fit, not a confirmed value.
# Experiment: Nrf2 qHTS screen for inhibitors; note: nearly all actives have a fitted effect of over 60% in size
# Conditions: A549 ARE-Fluc reporter, luciferase luminescence, 18-24 h; activity change, negative = inhibition: at 46 µM (top of the series)
# Outline: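 Nrf2 activity is the BugLite luminescence, read 15 min after reagent at room temperature, following CellTiter-Fluor cytotoxicity readout (30 min, 37C). Compound titrations were applied for 18-24 h to 5000 A549 ARE_Fluc cells/well in 5% FBS OPTI-MEM.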
# % is set by controls: 0 for no effect and ±100 for the full control effect; potency is the fitted concentration of half-maximal effect.
SMILES,"activity change, negative = inhibition",Potency
O=C(O)c1cccc(-n2cccc2/C=C/[N+](=O)[O-])c1,inactive: 11.1%,
Cc1ccc(C(=O)Nc2ccc(N3CCOCC3)cc2)cc1S(=O)(=O)N1CCCCC1,,"inconclusive: 29.1 µM [falling, single point]"
NC(=O)Cc1ccc2sc(-c3ccccc3)nc2c1,,"inconclusive: 0.411 µM [activator, full curve]"
Brc1ccccc1-c1nnc(COc2ncnc3c2cnn3-c2ccccc2)o1,,"inconclusive: 29.1 µM [falling, partial curve, poor fit]"
COC(=O)N/N=C/c1ccc(-c2cccc(Cl)c2)o1,,"inconclusive: 32.6 µM [activator, partial curve, poor fit]"
COc1ccc(N2CCN(C(=O)c3cc4c(=O)n(Cc5cccs5)ccc4nc3C)CC2)cc1,,"inconclusive: 14.6 µM [falling, partial curve, poor fit]"
CCOC(=O)[C@H]1[C@H]2COc3ccc(Br)cc3[C@H]2N2C(=O)CN(CCc3c[nH]c4ccccc34)C(=O)[C@@]12C,,"inconclusive: 29.1 µM [falling, single point]"
Cc1noc(C)c1S(=O)(=O)N1CCC(C(=O)N2CCN(Cc3ccc4c(c3)OCO4)CC2)CC1,,"inconclusive: 25.9 µM [falling, partial curve, poor fit]"
COc1ccc(CNC(=O)c2cc3sccc3n2C)cc1,,"inconclusive: 23.1 µM [activator, partial curve, poor fit]"
CCOC(=O)C1CCN(c2c(N3CCN(Cc4ccccc4)CC3)c(=O)c2=O)CC1,,"inconclusive: 29.1 µM [activator, single point]"
CCNC(=O)c1ccc(OCC(=O)Nc2ccc(F)cc2)c(OC)c1,inactive: 8.83%,
CCOc1cc(C2CC(=O)N3CN(C4CCCCC4)CSC3=C2C#N)ccc1O (stereo not drawn),,"inconclusive: 29.1 µM [activator, single point]"
CNc1nc2c(N)ncnc2n1[C@H]1O[C@@H](CO)[C@H](O)[C@@H]1O,,"inconclusive: 8.2 µM [activator, partial curve]"
CCOc1ccc(/C=N/NC(=O)C(=O)N2CCCCCC2)c2ccccc12,inactive: -17.8%,
O=C(N/N=C/c1sc2ccccc2c1O)c1ccccc1,,"inconclusive: 16.4 µM [falling, partial curve]"
Cc1ccc(C(=O)Nc2cccc(C(=O)N3CCOCC3)c2)cc1,,"inconclusive: 18.4 µM [activator, partial curve]"
CCOC(=O)c1c(C)[nH]c(C)c1C(=O)COC(=O)c1ccc(S(=O)(=O)N(CC)CC)cc1,,"inconclusive: 18.4 µM [falling, single point]"
CCN1CC=C2C(C#N)=C(N)C(C#N)(C#N)C(CCc3ccccc3)C2C1 (stereo not drawn),inactive: 5.79%,
N#Cc1cc(-c2cccc(Cl)c2)c[nH]c1=O,inactive: -27.7%,
CSc1nnc(NC(=O)c2ccc(C)c(S(=O)(=O)N3CCOCC3)c2)s1,,"inconclusive: 10.3 µM [activator, partial curve]"
CC(C)[C@H](NC(=O)N1CCn2c1nc1ccccc12)C(=O)NC1CC1,,"inconclusive: 23.1 µM [falling, single point]"

# Fetched by structure from above, 2 records:
SMILES,"activity change, negative = inhibition",Potency
CSc1nnc(NC(=O)c2ccc(C)c(S(=O)(=O)N3CCOCC3)c2)s1,,"inconclusive: 10.3 µM [activator, partial curve]"
NC(=O)Cc1ccc2sc(-c3ccccc3)nc2c1,,"inconclusive: 0.411 µM [activator, full curve]"

# Continued:

SMILES,"activity change, negative = inhibition",Potency
CC1(C)Cc2nc3oc4c(SCC(N)=O)ncnc4c3cc2CO1,,"inconclusive: 20.6 µM [activator, single point]"
CCOc1ccc(C(C)NC(=S)NCc2ccc(Cl)cc2)cc1 (stereo not drawn),,"inconclusive: 23.1 µM [falling, single point]"
O=c1/c(=C/c2ccco2)sc2n1CN(c1cccc(Br)c1)CN=2,,"inconclusive: 8.2 µM [falling, partial curve]"
O=C(c1ccccc1Cl)c1c(O)c2ccccc2oc1=O,,"inconclusive: 29.1 µM [falling, single point]"
c1ccc(N/N=C(\Cc2ncc[nH]2)c2ccccc2)cc1,,"inconclusive: 7.31 µM [activator, partial curve]"
CCn1nnc2cc(C(=O)Nc3cccc(C(F)(F)F)c3)ccc21,,"inconclusive: 2.91 µM [falling, partial curve, poor fit]"
COc1ccccc1-c1nnc(NC(=O)c2ccc3c(c2)OCO3)s1,inactive: 2.13%,
CC(C)NC(=O)c1cnc2sc(N3CCCCCC3)nn2c1=O,inactive: 3.08%,
O=C(CN1CCN(S(=O)(=O)c2cc(Cl)ccc2Cl)CC1)Nc1ccc2c(c1)OCCO2,,"inconclusive: 6.51 µM [activator, single point]"
Cc1cc(NC(=O)COC(=O)COc2ccc(C(=O)c3ccccc3)cc2)no1,inactive: 9.01%,
COc1cc2c(cc1OC)C(C)N(C(=O)c1cc3c(s1)-c1c(C)cccc1OC3)CC2 (stereo not drawn),,"inconclusive: 13 µM [falling, partial curve]"
COc1ccccc1OCc1nc(-c2ccc([N+](=O)[O-])cc2)no1,,"inconclusive: 7.31 µM [activator, partial curve, poor fit]"
Fc1ccc(-c2cc(C(F)(F)C(F)F)[nH]n2)cc1,inactive: -3.23%,
CC(Oc1ccc2c3c(c(=O)oc2c1)CCCC3)C(=O)NCC(O)c1ccccc1 (stereo not drawn),,"inconclusive: 25.9 µM [activator, partial curve, poor fit]"
CCCCC1(C)NC(=S)N2N1C(=S)NC2(C)CCCC (stereo not drawn),,"inconclusive: 2.31 µM [activator, partial curve, poor fit]"
O=C1CC(SC(=Nc2ccccc2)Nc2ccccc2)C(=O)N1c1cccc2ccccc12 (stereo not drawn),,"inconclusive: 32.6 µM [falling, single point]"
O=C(Nc1ccccc1N1CCOCC1)C1=NN(c2c(F)c(F)cc(F)c2F)C(=O)CC1,,"inconclusive: 18.4 µM [falling, single point]"
COc1cccc(/C=C(\C#N)c2nc3ccc(C)cc3[nH]2)c1,,"inconclusive: 7.31 µM [activator, partial curve, poor fit]"
CCCCC(=O)NC(=S)Nc1cccc(NC(=O)c2ccccc2)c1,,"inconclusive: 29.1 µM [falling, single point]"
c1ccc(CSc2ccc(-c3cccs3)nn2)nc1,,"inconclusive: 9.2 µM [activator, partial curve, poor fit]"
CCC1(C)Cc2c(sc3nnn(CC(=O)Nc4ccccc4)c(=O)c23)CO1 (stereo not drawn),,"inconclusive: 29.1 µM [falling, single point]"

SMILES,"activity change, negative = inhibition",Potency
O=C(Cn1c(=O)n(-c2ccccc2)c(=O)c2ccc(C(=O)NCc3ccc4c(c3)OCO4)cc21)Nc1ccc(Br)cc1F,inactive: 6.78%,
O=C(NCCN1C(=O)S/C(=C\c2cccc(Cl)c2Cl)C1=O)C1=COCCO1,inactive: 7.92%,
COc1ccc(CNc2nc(-c3ccc(OC)c(OC)c3)cc(C(F)(F)F)n2)cc1,inactive: 1.17% [at 9.27 µM],
COc1ccccc1Nc1nc(-c2sc(NC(=O)CC(C)C)nc2C)cs1,inactive: 11.3%,
O=C(Cc1ccc(S(=O)(=O)N2CCOCC2)s1)N1CCN(S(=O)(=O)c2ccccc2[N+](=O)[O-])CC1,,"inconclusive: 0.461 µM [falling, full curve, poor fit]"
C/C=C(/C)C(=O)OC1CC(C)(C)C[C@H]2C3=CC[C@@H]4[C@@]5(C)CCC(O[C@@H]6O[C@@H](C(=O)O)[C@@H](O)C(O[C@@H]7OC[C@H](O)[C@@H](O)[C@@H]7O[C@@H]7OC(CO)C(O)[C@@H](O)[C@@H]7O)C6O[C@@H]6OC(CO)C(O)C(O)C6O)[C@@](C)(CO)[C@@H]5CC[C@]4(C)[C@]3(C)CC(O)[C@@]12CO (stereo partly drawn),,"inconclusive: 16.4 µM [falling, partial curve, poor fit]"
O=C(NCc1cccnc1)c1ccc(S(=O)(=O)N2CCCCC2)cc1,,"inconclusive: 29.1 µM [falling, single point]"
CCc1nnc(NC(=O)Cc2ccc(OC)c(OC)c2)s1,inactive: -1.96%,
S=C(NCCc1ccccn1)Nc1cc(Cl)cc(Cl)c1,,"inconclusive: 23.1 µM [falling, partial curve, poor fit]"
COc1ccc(-c2ccnc3c(C(=O)O)cnn23)cc1,inactive: -0.126%,
CCOc1cc(/C=N\NC(=O)CC(=O)NCCc2ccccc2)ccc1O,,"inconclusive: 29.1 µM [activator, single point]"
CC(=O)c1ccc(-c2ccc([C@H]3[C@H]4C=CC[C@@H](C)[C@@H]4C(=O)N3Cc3ccccc3)c(F)c2)cc1,,"inconclusive: 29.1 µM [falling, single point]"
Cc1nc2ccc(NS(=O)(=O)c3ccccc3F)cc2s1,,"inconclusive: 29.1 µM [falling, single point]"
O=C(CSC1=Nc2ccccc2C2=NC(CCC(=O)NC3CCCCC3)C(=O)N12)Nc1cccc(Cl)c1 (stereo not drawn),,"inconclusive: 25.9 µM [falling, single point]"
CC(Oc1ccc(Cl)cc1Cl)C(=O)Nc1ccc(O)cc1 (stereo not drawn),inactive: 1.42%,
Cn1nc(C(=O)Nc2ccccc2)c2c1-c1ccccc1S(=O)(=O)C2,,"inconclusive: 1.46 µM [falling, full curve, poor fit]"
CC(C)COC(=O)Nc1nnc(Cc2ccccc2)s1,,"inconclusive: 16.4 µM [activator, partial curve]"
COc1ccc(N2CCN(C(=O)c3ccc(Br)cc3)CC2)c([N+](=O)[O-])c1,inactive: -27.3%,
COc1ccc(C)cc1S(=O)(=O)N(CC(=O)NCc1ccc(Cl)cc1)Cc1ccccc1,,"inconclusive: 25.9 µM [falling, partial curve, poor fit]"
CC1(C)Cc2c(c(N3CCOCC3)nc3sc4c(NN)ncnc4c23)CS1,,"inconclusive: 11.6 µM [falling, partial curve, poor fit]"
CC1(C)Cc2nc3sc4c(N(CCO)CCO)ncnc4c3cc2CO1,inactive: 21.6%,
